Source: article PMC7930092
Like-named read-outs stand apart in the source and are kept apart here. No constants are given. Whether binding was seen depends on the method and setting. In cells and extracts the contact can be indirect. Some entries that bind do so weakly or less than the wild type. For some of these results: Sequences can lack the tags named with a protein.

By UniProt entry, the sequences of proteins in these tests, tags left out.
UniProt J9SQF3: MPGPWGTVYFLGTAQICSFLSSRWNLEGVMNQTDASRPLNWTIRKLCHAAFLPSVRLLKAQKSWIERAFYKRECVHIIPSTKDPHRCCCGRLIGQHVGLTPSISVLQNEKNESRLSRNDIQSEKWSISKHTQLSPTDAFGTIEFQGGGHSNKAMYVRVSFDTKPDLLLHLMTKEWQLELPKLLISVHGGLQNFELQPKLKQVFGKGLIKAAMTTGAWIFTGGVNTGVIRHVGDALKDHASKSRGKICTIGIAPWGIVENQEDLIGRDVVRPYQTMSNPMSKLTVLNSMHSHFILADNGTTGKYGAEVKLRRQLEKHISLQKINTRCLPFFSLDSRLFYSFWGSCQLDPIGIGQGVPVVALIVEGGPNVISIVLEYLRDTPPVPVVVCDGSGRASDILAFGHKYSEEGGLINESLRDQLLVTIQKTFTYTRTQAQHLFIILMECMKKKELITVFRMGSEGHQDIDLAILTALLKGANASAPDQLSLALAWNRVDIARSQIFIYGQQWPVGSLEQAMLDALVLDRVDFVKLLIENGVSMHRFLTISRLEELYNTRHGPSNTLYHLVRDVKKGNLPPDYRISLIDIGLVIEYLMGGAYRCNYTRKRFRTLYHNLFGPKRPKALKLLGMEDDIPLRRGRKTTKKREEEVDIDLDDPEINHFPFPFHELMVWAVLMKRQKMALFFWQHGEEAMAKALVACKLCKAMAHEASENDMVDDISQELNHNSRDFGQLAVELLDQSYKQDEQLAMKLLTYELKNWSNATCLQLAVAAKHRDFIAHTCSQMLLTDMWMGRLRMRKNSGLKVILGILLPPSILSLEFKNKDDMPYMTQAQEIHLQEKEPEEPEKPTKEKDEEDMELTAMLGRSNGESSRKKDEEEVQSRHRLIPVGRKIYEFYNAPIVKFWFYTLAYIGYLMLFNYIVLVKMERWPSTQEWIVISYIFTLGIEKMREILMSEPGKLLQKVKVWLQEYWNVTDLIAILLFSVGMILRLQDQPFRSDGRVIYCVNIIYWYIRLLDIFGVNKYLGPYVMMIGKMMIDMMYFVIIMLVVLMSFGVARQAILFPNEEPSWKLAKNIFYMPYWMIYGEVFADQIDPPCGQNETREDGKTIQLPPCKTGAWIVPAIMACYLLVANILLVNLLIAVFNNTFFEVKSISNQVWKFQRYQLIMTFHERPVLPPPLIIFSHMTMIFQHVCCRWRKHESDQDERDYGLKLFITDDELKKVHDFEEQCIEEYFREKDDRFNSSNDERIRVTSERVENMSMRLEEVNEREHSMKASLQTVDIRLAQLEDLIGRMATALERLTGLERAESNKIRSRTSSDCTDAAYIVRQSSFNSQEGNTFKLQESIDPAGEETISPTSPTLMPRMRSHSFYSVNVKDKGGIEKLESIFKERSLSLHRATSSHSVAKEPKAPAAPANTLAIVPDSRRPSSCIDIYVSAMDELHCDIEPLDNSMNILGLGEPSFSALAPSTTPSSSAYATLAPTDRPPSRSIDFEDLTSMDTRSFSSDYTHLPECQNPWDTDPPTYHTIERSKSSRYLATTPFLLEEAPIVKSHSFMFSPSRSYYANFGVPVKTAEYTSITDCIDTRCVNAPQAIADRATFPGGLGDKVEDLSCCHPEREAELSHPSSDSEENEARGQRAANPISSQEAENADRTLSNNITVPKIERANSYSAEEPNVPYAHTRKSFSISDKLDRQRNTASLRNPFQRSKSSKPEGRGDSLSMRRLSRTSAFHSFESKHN
UniProt P33175: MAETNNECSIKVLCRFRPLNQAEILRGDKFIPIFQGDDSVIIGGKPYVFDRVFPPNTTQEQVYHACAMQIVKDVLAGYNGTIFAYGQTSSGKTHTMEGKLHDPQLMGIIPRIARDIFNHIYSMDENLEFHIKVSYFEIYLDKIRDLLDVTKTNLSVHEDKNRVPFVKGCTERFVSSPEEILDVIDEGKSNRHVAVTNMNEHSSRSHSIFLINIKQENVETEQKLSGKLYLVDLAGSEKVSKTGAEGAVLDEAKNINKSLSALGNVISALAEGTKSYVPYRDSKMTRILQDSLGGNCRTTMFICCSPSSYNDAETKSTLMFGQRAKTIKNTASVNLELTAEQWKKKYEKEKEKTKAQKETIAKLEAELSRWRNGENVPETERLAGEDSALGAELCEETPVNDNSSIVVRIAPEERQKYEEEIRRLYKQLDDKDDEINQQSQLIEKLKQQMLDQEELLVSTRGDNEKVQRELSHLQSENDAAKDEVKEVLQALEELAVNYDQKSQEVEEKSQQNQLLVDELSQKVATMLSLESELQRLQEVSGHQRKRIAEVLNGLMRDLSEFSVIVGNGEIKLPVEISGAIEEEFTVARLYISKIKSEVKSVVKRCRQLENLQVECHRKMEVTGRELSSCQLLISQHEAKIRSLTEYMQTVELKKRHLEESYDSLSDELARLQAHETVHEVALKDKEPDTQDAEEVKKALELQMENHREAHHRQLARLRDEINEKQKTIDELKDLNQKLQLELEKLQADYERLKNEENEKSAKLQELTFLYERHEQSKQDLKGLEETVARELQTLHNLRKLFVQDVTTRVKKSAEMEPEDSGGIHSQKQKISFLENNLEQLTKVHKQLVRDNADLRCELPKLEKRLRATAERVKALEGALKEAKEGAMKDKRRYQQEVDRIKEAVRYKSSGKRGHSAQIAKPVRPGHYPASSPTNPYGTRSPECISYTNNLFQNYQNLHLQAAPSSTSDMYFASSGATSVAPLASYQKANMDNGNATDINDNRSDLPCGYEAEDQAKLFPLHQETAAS
UniProt P28741: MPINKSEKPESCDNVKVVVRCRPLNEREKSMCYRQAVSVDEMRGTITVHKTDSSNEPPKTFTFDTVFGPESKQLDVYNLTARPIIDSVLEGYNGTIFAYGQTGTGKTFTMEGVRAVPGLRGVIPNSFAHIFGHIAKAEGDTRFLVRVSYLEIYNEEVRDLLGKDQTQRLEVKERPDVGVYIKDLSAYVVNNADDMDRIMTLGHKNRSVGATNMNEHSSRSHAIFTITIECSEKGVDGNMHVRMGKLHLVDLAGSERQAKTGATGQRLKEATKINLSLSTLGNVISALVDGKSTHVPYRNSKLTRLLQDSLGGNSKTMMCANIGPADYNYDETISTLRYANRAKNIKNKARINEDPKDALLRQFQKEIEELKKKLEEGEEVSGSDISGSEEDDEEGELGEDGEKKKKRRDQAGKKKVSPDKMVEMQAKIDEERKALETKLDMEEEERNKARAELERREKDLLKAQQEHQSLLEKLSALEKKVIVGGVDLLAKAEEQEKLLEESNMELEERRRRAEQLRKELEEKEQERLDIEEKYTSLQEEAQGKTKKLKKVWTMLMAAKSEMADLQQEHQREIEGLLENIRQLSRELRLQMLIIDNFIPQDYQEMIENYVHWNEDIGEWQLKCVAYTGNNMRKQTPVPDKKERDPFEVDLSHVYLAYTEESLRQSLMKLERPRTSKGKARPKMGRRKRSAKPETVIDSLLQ
UniProt Q61768: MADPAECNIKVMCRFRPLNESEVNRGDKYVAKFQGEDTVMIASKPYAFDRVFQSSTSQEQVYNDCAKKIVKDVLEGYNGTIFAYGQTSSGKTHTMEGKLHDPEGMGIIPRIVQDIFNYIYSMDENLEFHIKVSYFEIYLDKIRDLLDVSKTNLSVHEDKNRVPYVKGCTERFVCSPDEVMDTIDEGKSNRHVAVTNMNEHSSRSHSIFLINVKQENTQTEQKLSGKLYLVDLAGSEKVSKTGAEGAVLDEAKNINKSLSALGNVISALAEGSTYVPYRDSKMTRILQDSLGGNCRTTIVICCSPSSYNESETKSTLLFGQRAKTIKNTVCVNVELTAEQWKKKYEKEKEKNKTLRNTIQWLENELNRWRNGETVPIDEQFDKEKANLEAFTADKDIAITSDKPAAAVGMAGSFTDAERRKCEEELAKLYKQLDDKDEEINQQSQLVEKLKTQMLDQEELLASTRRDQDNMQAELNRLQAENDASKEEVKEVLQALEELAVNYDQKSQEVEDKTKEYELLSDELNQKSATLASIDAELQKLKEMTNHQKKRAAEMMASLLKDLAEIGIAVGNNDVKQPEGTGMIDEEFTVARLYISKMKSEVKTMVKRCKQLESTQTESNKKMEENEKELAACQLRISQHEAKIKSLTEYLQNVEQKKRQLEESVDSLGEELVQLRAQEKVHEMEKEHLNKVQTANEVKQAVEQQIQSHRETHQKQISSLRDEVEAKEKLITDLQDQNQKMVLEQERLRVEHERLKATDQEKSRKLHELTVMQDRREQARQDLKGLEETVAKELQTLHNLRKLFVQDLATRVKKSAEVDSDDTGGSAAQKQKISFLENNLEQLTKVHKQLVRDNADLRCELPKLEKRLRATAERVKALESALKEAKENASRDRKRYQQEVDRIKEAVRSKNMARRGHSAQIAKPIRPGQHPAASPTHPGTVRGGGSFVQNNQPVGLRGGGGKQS

How the values were obtained:
[1] = target: T1, ATF4-His (aa 233-349) (UniProt Q06507); experiment: co-IP; ATF4-His fragments co-expressed with TRPM3-Flag or KIF17-Flag in HEK293T cells; lysates immunoprecipitated with a His antibody, immunoblotted with His or Flag antibody
T1 sequence: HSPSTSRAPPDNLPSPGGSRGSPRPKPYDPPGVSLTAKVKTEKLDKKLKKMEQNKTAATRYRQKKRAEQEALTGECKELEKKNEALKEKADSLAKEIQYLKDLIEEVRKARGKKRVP

[2] = target: T2, activating transcription factor 4 (ATF4), endogenous in mouse DRG (mouse (endogenous in DRG)) (UniProt Q06507); experiment: co-IP; mouse DRG lysates in co-IP RIPA buffer (20 mM Tris-HCl pH 7.5, 150 mM NaCl, 0.1% Triton X-100, 1% sodium deoxycholate); 5-10 ug ATF4 or TRPM3 antibody at 4 °C overnight, protein A/G beads 4 h; immunoblot; also done after heat stimulation of the hind paws (43 °C, 30 s; 2-40 min) and after intrathecal ATF4 siRNA
T2 sequence: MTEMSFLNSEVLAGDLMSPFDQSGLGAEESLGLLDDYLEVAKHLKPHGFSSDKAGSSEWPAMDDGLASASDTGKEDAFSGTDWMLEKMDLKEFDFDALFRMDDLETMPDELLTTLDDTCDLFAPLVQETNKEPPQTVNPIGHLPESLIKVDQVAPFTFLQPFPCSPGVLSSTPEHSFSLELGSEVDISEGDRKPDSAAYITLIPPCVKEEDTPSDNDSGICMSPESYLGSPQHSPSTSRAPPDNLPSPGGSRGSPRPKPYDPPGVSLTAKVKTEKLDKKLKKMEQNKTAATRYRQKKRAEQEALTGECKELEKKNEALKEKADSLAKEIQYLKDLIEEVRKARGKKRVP

[3] = target: T3, ATF4-His (aa 117-232) (UniProt Q06507); experiment: co-IP; ATF4-His fragments co-expressed with TRPM3-Flag or KIF17-Flag in HEK293T cells; lysates immunoprecipitated with a His antibody, immunoblotted with His or Flag antibody
T3 sequence: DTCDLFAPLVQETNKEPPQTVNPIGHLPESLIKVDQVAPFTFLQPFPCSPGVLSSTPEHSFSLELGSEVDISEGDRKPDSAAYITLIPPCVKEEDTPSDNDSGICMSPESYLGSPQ

[4] = target: T2, activating transcription factor 4 (ATF4), endogenous in mouse DRG (mouse (endogenous in DRG)); experiment: co-IP; mouse DRG lysates in co-IP RIPA buffer (20 mM Tris-HCl pH 7.5, 150 mM NaCl, 0.1% Triton X-100, 1% sodium deoxycholate); 5-10 ug ATF4 or TRPM3 antibody at 4 °C overnight, protein A/G beads 4 h; immunoblot; also done after heat stimulation of the hind paws (43 °C, 30 s; 2-40 min) and after intrathecal ATF4 siRNA; remark: listed apart in the source
[5] = target: transient receptor potential cation channel subfamily M member-3 (TRPM3), endogenous in mouse DRG (mouse (endogenous in DRG)) (UniProt J9SQF3); experiment: as above

Molecule: Full-length TRPM3-Flag (from UniProt J9SQF3 1-1732)
- binding [1]: binds

Molecule: KIF5A, endogenous in mouse DRG (from UniProt P33175 1-1027)
- binding [2]: binds weakly

Molecule: KIF3A, endogenous in mouse DRG (from UniProt P28741 1-701)
- binding [2]: binds weakly

Molecule: KIF5B, endogenous in mouse DRG (from UniProt Q61768 1-963)
- binding [2]: binds weakly

Molecule: transient receptor potential cation channel subfamily M member-3 (TRPM3), endogenous in mouse DRG (from UniProt J9SQF3 1-1732)
- binding [2]: binds

B1: Full-length KIF17-Flag (protein, UniProt Q99PW8 1-1038)
chain: MASESVKVVVRCRPMNKRERELSCQSVVTVDSARGQCFIQNPGAADEPPKQFTFDGAYYIEHFTEQIYNEIAYPLVEGVTEGYNGTIFAYGQTGSGKSFTMQGLPDPPCQRGIIPRAFEHVFESVQCAENTKFLVRASYLEIYNEDVHDLLGADTKQRLELKEHPEKGVYVKGLSMHTVHNVAQCERVMETGWKNRAVGYTLMNKDSSRSHSIFTINIEIYAVDERGKDHLRAGKLNLVDLAGSERQSKTGATGERLKEATKINLSLSALGNVISALVDGRCKHIPYRDSKLTRLLQDSLGGNTKTLMVACLSPADNNYDETLSTLRYANRAKNIKNKPRINEDPKDALLREYQEEIKRLKAILAQQMGPGNLSALLSTQTPPGPVQSEEKLLSPTTVQQDTEAEKQLIREEYEERLARLKADYEAEQESRVRLQEDITAMRNSYDVKLSTLQENLRKEKETEAILKAEVLCKTEVMSRAELASGPEYSPPLQYETAVKPTILSMPDMPPSGKVTKSQAPLAFEEPHGETSRSEFSFESNECSTLEDSATSEAFPGPEEFSNMEFSMAAALTESRYLPEEYLGGQEAAASPLEAERYVQENEPSLEPLRILASLQDPFAEVEAKLARLSSTVAMSDSSQTVVPQIPKQPSSADLLEPSDTKSEADVAVADNVVLGTEPDVNLRVAEEVVSEAETGVWMESEAQVAHVAQVSEEAQPQPLLAMVSVRRESVGVEVAVLTEEELQPVDQQQVLARLQLLEQQVVGGEQAKNKDLREKHKRRKRYADERKKQLVAALQNSDEDGGDWVLLNVYDSIQEEVRAKSKLLEKMQRKLRAAEVEIKDLQSEFQLEKIDYLATIRRQERDSMLFQQLLEQVQPLIRRDCNYSNLEKIRRESSWDEDNGFWKIPDPIILKTSLPVVPTGTQNKPARKTSAVDSGEPHMQEEDRYKLMLSRSDSENIASNYFRSKRASQILSTDPMKSLTYHNSPPGLNSSLSNNSALPPTQTPEMPQPRPFRLESLDIPFSKAKRKKSKNSFGGEPL
- binding [3]: binds

B2: KIF17, endogenous in mouse DRG (protein, UniProt Q99PW8 1-1038)
chain: B1 chain
- binding [4]: binds
- binding [5]: binds

B3: KIF3B, endogenous in mouse DRG (protein, UniProt Q61771 1-747)
chain: MSKLKSSESVRVVVRCRPMNGKEKAASYDKVVDVDVKLGQVSVKNPKGTSHEMPKTFTFDAVYDWNAKQFELYDETFRPLVDSVLQGFNGTIFAYGQTGTGKTYTMEGVRGDPEKRGVIPNSFDHIFTHISRSQNQQYLVRASYLEIYQEEIRDLLSKDQTKRLELKERPDTGVYVKDLSSFVTKSVKEIEHVMNVGNQNRSVGATNMNEHSSRSHAIFVITIECSEVGLDGENHIRVGKLNLVDLAGSERQAKTGAQGERLKEATKINLSLSALGNVISALVDGKSTHIPYRDSKLTRLLQDSLGGNAKTVMVANVGPASYNVEETLTTLRYANRAKNIKNKPRVNEDPKDALLREFQEEIARLKAQLEKRSIGRRKRREKRREGGGSGGGGEEEEEEGEEGEEDGDDKDDYWREQQEKLEIEKRAIVEDHSLVAEEKMRLLKEKEKKMEDLRREKDAAEMLGAKIKAMESKLLVGGKNIVDHTNEQQKILEQKRQEIAEQKRREREIQQQMESRDEETLELKETYTSLQQEVDIKTKKLKKLFSKLQAVKAEIHDLQEEHIKERQELEQTQNELTRELKLKHLIIENFIPLEEKNKIMNRSFFDDEEDHWKLHPITRLENQQMMKRPVSAVGYKRPLSQHARMSMMIRPEPRYRAENIMLLELDMPSRTTRDYEGPAISPKVQAALDAALQDEDEIQVDASSFESTASRKPKARPKSGRKSGSSSSSSGNPASQFYPQSRGLVPK
- binding [4]: binds weakly

B4: KIFC2, endogenous in mouse DRG (protein, UniProt O08672 1-792)
chain: MYAFYSLLIYIFYSLFRRDGGAAAVSDPGDPTQKSGGQPRGRRRPDQFTSELWSELNSLAGCSESEDGQKGAEGGAAEVSLEEALMRLAEFLSVQLGAEESCGTTPDLGKPGEVPPLLTVTSQLLALLAWTRSPRGRQALLQGTQPTCPVQPSTLDGSLSQEESSSQPTPILDEVPRDETQEHQPLQLEEEQRVWQRLEQLILGQLEELRQQLEQQEEELSRLRLGVGVTDSEKRVQHLTLENEALKQSLSLTRDLLLHWGPGPLPRLSQEEAGALLELQGQLQEAQDTTEALRVQLGAQELQLQGLRGALRQLQQETEQNCRQELQQVHGQLAGLRARMASLRQGCGDLRGLVSTFTQSCQGSLSEAQGQVSWALGALSAGKAKTQLSEGNQAPPTGCSGRLLELKGNIRVLCRLRPAEGQPSSLVSVEPGQGGTITTCYRGRQHCFRLDWVFPQDASQEEVFRQLEPAVLSCLQGYSVCIFTYGQTGTGKTYSMEGPPEDPGIAPRALQLLFREMGTGGHHHVTLSMVEIYNEAVRDLLATGPPERLVVRQGPAGQGGIQVAGLTHWDVPNLETLHQMLSLGRSNRATAATVMNQHSSRSHALVTLTLRAASPPRPQGITGTLHLVDLAGSERVWKAGVASPVQRDPNGARRLREAQAINRSLLALGGVMAALRARRPHVPFRDSQLTRLLQPALWAGTTAVLLLQISTRAEDLGETICSLKFAERVGQVELGPARRRRAPRSGTPSSLSTDTPLTGTSCTPTPSPGSPPSTSPNSCSGLTLEPPGDPPP
- binding [4]: binds weakly
